One substance from patent publication US20240299493A1 (ACCELERON PHARMA, published 2024) can be followed below.

Sequences of proteins named here, by UniProt entry; tags and fusion partners are left off. A change or cut given only in a name is not applied to a line headed by its entry. Residues count along the entry.
UniProt P22004, residues 382-513: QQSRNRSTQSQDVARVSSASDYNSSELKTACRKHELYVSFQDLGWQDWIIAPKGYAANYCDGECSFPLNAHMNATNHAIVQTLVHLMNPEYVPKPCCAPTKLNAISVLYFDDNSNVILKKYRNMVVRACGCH
UniProt P27037: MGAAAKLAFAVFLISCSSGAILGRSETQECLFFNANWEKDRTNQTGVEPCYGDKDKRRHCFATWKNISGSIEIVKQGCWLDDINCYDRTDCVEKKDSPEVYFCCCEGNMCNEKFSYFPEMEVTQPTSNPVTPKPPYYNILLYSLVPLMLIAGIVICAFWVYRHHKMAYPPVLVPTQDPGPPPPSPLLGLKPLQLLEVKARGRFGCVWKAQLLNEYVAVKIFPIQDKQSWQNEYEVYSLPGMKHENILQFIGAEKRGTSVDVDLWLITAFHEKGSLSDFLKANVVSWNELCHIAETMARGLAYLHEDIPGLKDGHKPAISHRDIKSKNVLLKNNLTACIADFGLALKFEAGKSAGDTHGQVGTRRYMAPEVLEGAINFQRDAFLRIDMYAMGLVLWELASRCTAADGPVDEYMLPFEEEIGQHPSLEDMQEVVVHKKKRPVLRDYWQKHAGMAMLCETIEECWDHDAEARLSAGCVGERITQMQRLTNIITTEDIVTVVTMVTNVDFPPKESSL

Results are given in words; binding and its absence hold for the method and conditions named. Some binding calls cover weakened binding; strength is not graded here.

In this assay the target is BMP6 (UniProt P22004). The assay is described as follows: similar Biacore binding assay.

“ActRIIA-mFc (from UniProt P27037 21-135) (Fc fusion)”: the binding entry was “binds”.
